This data set is described as follows: general procedure: Fmoc solid-phase peptide synthesis; Rink amide-resin (500 mg, loading capacity = 0.33 mmol/g); HCTU/DIPEA. To be noted: whole synthesis, hydrocarbon staple.

In the case of VS5RFKS5FFRKLKKLV-NH2, under “analytical RP-HPLC, Vydac C18, scale of the general procedure 500 mg resin”, the “final HPLC purity” value is reported as “over 95% purity”. Under “total, scale of the general procedure 500 mg resin”, this substance yielded an isolated yield of 65% total yield.

Values taken from paper PMC9021566 (Frontiers in Chemistry, 2022).
